Counter-ions that a name gives are not always drawn. This is one part of the list. The calls rarely recur for the same compound in another form.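 Kinases were expressed as nanoluciferase fusions in K562 cells and luminescence was read every 4 h between 2 and 18 h as percent of control, DMSO set to 100% and a positive control to 0%. A time point counts as decreased when the signal drops significantly (2 sigma). The hit call is the authors' own, does not follow from the count of time points alone, and its rule is not shown.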
Tests used:
Experiment in all cases: kinase-Nluc reporter destabilization hit call (1 = scored as downregulated) (binary); higher = compound decreases kinase abundance
Conditions in all cases: K562; 2-18 h
ABL1 = ABL1 (UniProt P00519)
AKT1 = AKT1 (UniProt P31749)
ALK = ALK (UniProt Q9UM73)
ARAF = ARAF (UniProt P10398)
AURKA = AURKA (UniProt O14965)
AURKB = AURKB (UniProt Q96GD4)
AURKC = AURKC (UniProt Q9UQB9)
BLK = BLK (UniProt P51451)
BMX = BMX (UniProt P51813)
BRAF = BRAF (UniProt P15056)
BRAF_V600E = test system: BRAF_V600E
BTK = BTK (UniProt Q06187)
CAMK2A = CAMK2A (UniProt Q9UQM7)
CAMK2G = CAMK2G (UniProt Q13555)
CDK10 = CDK10 (UniProt Q15131)
CDK2 = CDK2 (UniProt P24941)
CDK3 = CDK3 (UniProt Q00526)
CDK4 = CDK4 (UniProt P11802)
CDK5 = CDK5 (UniProt Q00535)
CDK6 = CDK6 (UniProt Q00534)

Sequences of proteins named here, by UniProt entry; tags and fusion partners are left off. A change or cut given only in a name is not applied to a line headed by its entry.
UniProt P31749: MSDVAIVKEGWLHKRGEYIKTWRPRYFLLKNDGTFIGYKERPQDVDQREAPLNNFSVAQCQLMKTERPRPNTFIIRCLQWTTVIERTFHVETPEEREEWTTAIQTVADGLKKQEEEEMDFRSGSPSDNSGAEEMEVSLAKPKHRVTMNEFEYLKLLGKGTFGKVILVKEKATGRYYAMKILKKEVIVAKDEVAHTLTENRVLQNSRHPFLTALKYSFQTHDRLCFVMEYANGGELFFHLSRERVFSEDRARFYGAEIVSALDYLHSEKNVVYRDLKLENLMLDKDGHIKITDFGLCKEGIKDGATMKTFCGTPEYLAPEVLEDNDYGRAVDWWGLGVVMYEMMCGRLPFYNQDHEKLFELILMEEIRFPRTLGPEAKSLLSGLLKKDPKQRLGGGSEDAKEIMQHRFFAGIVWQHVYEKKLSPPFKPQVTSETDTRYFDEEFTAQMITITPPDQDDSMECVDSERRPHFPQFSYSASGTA
UniProt Q9UM73: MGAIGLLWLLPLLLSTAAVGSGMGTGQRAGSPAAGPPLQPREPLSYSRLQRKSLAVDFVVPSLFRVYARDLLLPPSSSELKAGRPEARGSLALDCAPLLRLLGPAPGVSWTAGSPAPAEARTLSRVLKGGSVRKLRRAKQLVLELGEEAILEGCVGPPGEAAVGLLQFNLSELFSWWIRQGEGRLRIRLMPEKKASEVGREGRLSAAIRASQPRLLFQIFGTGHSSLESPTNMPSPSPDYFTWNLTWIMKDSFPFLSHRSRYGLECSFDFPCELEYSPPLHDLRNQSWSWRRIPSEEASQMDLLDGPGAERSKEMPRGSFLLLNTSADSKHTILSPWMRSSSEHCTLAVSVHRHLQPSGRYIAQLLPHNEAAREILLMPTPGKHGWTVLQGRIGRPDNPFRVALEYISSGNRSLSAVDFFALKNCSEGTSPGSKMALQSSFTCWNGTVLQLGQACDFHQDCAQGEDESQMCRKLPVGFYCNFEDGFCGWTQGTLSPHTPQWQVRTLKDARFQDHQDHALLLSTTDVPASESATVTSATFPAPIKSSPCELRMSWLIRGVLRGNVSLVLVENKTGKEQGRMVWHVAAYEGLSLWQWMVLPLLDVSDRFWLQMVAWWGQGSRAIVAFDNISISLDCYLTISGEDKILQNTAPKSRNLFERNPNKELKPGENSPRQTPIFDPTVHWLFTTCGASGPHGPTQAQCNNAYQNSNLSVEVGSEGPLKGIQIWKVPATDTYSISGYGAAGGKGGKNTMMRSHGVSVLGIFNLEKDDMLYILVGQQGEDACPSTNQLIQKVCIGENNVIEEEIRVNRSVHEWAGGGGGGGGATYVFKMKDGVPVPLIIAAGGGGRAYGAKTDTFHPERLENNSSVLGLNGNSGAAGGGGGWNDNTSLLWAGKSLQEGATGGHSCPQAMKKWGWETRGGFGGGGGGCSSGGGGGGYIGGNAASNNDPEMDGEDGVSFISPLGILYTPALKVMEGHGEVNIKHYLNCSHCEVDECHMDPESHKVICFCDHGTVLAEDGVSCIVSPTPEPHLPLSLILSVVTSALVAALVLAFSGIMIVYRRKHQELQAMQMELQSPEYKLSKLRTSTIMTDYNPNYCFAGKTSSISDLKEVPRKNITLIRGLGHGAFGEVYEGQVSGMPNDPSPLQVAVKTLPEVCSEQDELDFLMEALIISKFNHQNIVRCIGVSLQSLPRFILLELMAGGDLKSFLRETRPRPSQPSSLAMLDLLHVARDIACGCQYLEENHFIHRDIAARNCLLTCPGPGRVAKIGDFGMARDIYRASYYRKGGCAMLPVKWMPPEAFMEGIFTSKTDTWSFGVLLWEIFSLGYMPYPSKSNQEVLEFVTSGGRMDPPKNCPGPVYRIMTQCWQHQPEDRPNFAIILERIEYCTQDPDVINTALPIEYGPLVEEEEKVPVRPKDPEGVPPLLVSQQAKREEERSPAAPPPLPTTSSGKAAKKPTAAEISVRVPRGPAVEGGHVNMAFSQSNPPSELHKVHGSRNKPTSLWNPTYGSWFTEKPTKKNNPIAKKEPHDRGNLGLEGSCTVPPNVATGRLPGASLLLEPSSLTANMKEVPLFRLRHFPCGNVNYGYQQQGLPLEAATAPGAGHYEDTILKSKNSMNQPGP
UniProt O14965: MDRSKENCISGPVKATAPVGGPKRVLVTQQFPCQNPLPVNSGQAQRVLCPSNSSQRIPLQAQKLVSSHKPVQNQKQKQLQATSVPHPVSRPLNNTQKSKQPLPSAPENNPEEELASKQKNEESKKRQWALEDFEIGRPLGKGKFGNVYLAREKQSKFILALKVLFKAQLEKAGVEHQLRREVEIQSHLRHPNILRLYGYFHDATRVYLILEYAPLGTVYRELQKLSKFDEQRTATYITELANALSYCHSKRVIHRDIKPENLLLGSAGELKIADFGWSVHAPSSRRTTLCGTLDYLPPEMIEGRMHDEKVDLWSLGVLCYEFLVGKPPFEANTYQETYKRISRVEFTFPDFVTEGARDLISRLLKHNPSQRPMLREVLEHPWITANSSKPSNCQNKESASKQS
UniProt Q9UQB9: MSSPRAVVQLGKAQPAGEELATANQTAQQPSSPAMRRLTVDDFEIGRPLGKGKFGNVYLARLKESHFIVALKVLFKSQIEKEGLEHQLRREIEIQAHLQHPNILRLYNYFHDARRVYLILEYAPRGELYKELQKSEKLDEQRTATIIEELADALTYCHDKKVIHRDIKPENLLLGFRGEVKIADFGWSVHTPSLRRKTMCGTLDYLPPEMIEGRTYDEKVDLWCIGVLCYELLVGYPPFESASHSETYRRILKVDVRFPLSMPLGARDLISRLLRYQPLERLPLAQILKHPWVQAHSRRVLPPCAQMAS
UniProt P51813: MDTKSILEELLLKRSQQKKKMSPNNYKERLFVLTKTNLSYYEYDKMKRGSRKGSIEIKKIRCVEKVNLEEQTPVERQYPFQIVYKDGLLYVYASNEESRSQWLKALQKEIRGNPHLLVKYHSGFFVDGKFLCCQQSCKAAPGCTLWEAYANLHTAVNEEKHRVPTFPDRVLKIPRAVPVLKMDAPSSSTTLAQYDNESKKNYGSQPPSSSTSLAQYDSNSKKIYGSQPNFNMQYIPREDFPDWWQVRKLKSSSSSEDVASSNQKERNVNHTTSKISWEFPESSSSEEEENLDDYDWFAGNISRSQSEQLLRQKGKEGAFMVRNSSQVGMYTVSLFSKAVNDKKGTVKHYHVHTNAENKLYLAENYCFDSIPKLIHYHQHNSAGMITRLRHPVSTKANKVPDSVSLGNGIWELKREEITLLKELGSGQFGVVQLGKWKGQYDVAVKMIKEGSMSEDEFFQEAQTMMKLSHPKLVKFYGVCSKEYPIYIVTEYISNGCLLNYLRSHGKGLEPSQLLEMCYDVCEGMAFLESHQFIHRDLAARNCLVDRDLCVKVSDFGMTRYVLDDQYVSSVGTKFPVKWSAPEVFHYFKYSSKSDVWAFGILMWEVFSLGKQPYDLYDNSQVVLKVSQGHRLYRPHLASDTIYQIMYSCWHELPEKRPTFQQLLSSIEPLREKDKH
UniProt P15056, whole entry, looked up: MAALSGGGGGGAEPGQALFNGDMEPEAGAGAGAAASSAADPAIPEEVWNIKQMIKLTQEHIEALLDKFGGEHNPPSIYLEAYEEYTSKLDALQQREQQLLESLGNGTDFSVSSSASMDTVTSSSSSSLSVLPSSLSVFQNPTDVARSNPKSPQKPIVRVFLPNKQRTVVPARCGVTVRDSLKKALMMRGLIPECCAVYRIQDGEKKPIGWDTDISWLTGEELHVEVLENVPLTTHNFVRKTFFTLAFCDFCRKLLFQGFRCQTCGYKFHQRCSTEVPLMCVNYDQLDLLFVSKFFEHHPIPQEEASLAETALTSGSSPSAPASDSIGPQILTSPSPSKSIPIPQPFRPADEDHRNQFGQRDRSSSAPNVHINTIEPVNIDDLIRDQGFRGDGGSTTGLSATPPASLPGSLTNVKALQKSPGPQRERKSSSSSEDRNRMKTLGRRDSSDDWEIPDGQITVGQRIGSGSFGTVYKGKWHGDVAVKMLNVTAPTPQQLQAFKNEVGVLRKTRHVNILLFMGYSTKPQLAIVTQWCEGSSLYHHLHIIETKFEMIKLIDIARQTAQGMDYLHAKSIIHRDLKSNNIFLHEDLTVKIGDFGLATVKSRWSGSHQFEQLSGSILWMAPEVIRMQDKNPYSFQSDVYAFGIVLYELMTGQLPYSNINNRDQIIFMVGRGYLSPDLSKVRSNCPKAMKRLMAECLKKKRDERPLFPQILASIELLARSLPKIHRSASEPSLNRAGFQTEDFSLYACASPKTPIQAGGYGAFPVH
UniProt Q06187: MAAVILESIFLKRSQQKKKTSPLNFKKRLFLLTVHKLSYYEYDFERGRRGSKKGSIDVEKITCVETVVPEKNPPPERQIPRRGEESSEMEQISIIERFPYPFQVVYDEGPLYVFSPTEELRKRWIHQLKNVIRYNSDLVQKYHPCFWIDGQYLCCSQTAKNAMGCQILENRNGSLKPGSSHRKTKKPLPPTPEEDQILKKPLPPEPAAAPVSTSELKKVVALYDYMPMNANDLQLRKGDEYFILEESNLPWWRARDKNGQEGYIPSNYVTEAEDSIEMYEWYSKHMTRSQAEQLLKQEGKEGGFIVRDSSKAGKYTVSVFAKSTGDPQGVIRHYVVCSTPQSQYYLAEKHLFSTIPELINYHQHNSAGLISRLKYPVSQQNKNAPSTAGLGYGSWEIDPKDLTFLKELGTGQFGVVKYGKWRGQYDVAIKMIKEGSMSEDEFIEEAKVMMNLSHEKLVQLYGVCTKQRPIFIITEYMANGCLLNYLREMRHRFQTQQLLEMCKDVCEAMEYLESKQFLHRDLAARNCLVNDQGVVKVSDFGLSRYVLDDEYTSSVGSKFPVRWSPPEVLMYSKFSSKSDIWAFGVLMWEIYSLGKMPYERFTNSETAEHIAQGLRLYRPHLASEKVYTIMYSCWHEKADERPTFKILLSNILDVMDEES
UniProt Q9UQM7, whole entry: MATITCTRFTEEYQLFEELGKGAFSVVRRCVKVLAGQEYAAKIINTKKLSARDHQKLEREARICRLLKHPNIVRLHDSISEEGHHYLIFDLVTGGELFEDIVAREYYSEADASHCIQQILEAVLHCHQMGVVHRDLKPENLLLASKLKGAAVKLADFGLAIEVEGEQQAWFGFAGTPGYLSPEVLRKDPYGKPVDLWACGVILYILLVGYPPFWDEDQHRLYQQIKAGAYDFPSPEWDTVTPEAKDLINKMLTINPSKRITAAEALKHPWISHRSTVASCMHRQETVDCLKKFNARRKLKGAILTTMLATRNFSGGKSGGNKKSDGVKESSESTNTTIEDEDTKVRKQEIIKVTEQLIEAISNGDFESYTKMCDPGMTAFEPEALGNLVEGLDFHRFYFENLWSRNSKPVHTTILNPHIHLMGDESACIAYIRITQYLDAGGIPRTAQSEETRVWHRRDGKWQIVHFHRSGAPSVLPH
UniProt Q15131: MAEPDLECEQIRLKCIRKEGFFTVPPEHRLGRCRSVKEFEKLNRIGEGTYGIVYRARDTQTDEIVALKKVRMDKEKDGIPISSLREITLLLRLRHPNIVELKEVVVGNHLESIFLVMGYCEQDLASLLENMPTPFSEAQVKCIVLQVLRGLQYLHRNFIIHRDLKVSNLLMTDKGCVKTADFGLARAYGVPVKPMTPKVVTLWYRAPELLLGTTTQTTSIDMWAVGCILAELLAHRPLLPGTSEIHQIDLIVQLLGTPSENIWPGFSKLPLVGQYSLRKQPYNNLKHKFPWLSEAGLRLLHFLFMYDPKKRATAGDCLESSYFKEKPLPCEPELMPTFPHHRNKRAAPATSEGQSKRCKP
UniProt Q00526: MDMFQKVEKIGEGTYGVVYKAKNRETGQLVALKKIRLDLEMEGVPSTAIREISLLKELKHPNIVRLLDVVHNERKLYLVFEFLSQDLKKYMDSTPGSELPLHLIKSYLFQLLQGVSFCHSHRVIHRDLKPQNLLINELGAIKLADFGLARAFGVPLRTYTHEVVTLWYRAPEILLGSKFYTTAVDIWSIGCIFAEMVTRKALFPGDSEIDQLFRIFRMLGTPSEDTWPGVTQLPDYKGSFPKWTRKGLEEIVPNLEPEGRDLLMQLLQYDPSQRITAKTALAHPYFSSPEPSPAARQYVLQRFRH
UniProt P11802: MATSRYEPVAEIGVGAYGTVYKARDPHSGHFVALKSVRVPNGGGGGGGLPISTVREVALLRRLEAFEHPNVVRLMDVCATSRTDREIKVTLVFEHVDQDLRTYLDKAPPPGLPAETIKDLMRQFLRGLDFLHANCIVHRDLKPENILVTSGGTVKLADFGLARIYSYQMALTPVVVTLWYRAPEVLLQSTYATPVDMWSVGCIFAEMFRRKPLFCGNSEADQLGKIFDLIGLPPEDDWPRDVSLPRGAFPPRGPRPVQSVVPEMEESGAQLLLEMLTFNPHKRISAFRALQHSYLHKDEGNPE

Measured: kinase-Nluc reporter destabilization hit call

CCC(F)(F)c1cc(N2CCC(S(C)(=O)=O)CC2)nc2sc(C(N)=O)c(N)c12 (10 µM)
inactive: ABL1 = 0 | AKT1 = 0 | ALK 0 | ARAF 0 | AURKA 0 | AURKB 0 | AURKC 0 | BLK 0 | BMX 0 | BRAF 0 | BRAF_V600E 0 | BTK 0 | CAMK2A 0 | CAMK2G 0 | CDK10 = 0 | CDK2 = 0 | CDK3 = 0 | CDK4 = 0 | CDK5 = 0 | CDK6 = 0

CNCc1ccccc1Sc1cccc2ccccc12 [IFN alpha-IFNAR-IN-1 (hydrochloride)] (10 µM)
inactive: ABL1 = 0 | AKT1 = 0 | ALK 0 | ARAF 0 | AURKA 0 | AURKB 0 | AURKC 0 | BLK 0 | BMX 0 | BRAF 0 | BRAF_V600E 0 | BTK 0 | CAMK2A 0 | CAMK2G 0 | CDK10 = 0 | CDK2 = 0 | CDK3 = 0 | CDK4 = 0 | CDK5 = 0 | CDK6 = 0

O=C(Nc1ccc(Cl)cc1)C1CN(C(=O)c2cccc(-c3ccco3)c2)CC(F)(F)C1 (stereo not given) (2.5 µM)
inactive: ABL1 = 0 | AKT1 = 0 | ALK 0 | ARAF 0 | AURKA 0 | AURKB 0 | AURKC 0 | BLK 0 | BMX 0 | BRAF 0 | BRAF_V600E 0 | BTK 0 | CAMK2A 0 | CAMK2G 0 | CDK10 = 0 | CDK2 = 0 | CDK3 = 0 | CDK4 = 0 | CDK5 = 0 | CDK6 = 0

COc1ccc(Br)c(C=O)c1O [6-Bromo-2-hydroxy-3-methoxybenzaldehyde] (10 µM)
inactive: ABL1 = 0 | AKT1 = 0 | ALK 0 | ARAF 0 | AURKA 0 | AURKB 0 | AURKC 0 | BLK 0 | BMX 0 | BRAF 0 | BRAF_V600E 0 | BTK 0 | CAMK2A 0 | CAMK2G 0 | CDK10 = 0 | CDK2 = 0 | CDK3 = 0 | CDK4 = 0 | CDK5 = 0 | CDK6 = 0

Nc1ccc(-c2cccc(C(=O)Nc3cnc4nc(N5CCOCC5)oc4c3)n2)cn1 (10 µM)
inactive: ABL1 = 0 | AKT1 = 0 | ALK 0 | ARAF 0 | AURKA 0 | AURKB 0 | AURKC 0 | BLK 0 | BMX 0 | BRAF 0 | BRAF_V600E 0 | BTK 0 | CAMK2A 0 | CAMK2G 0 | CDK10 = 0 | CDK2 = 0 | CDK3 = 0 | CDK4 = 0 | CDK5 = 0 | CDK6 = 0

COc1cc(N2CCC(O)CC2)ccc1Nc1nc(Nc2ccccc2S(=O)(=O)C(C)C)c2[nH]cnc2n1 (10 µM)
inactive: ABL1 = 0 | AKT1 = 0 | ALK 0 | ARAF 0 | AURKA 0 | AURKB 0 | AURKC 0 | BLK 0 | BMX 0 | BRAF 0 | BRAF_V600E 0 | BTK 0 | CAMK2A 0 | CAMK2G 0 | CDK10 = 0 | CDK2 = 0 | CDK3 = 0 | CDK4 = 0 | CDK5 = 0 | CDK6 = 0

NCCNS(=O)(=O)c1ccc(Cl)c2ccncc12 [CKI-7 (free base)] (10 µM)
inactive: ABL1 = 0 | AKT1 = 0 | ALK 0 | ARAF 0 | AURKA 0 | AURKB 0 | AURKC 0 | BLK 0 | BMX 0 | BRAF 0 | BRAF_V600E 0 | BTK 0 | CAMK2A 0 | CAMK2G 0 | CDK10 = 0 | CDK2 = 0 | CDK3 = 0 | CDK4 = 0 | CDK5 = 0 | CDK6 = 0

COc1cc2c(cc1OC)[C@@H]1C(=O)c3ccc4c(c3O[C@@H]1CO2)C=CC(C)(C)O4 [Deguelin] (10 µM)
inactive: ABL1 = 0 | AKT1 = 0 | ALK 0 | ARAF 0 | AURKA 0 | AURKB 0 | AURKC 0 | BLK 0 | BMX 0 | BRAF 0 | BRAF_V600E 0 | BTK 0 | CAMK2A 0 | CAMK2G 0 | CDK10 = 0 | CDK2 = 0 | CDK3 = 0 | CDK4 = 0 | CDK5 = 0 | CDK6 = 0

CCOC(=O)c1c(C)[nH]c(C=C2C(=O)Nc3ccccc32)c1C (10 µM)
inactive: ABL1 = 0 | AKT1 = 0 | ALK 0 | ARAF 0 | AURKA 0 | AURKB 0 | AURKC 0 | BLK 0 | BMX 0 | BRAF 0 | BRAF_V600E 0 | BTK 0 | CAMK2A 0 | CAMK2G 0 | CDK10 = 0 | CDK2 = 0 | CDK3 = 0 | CDK4 = 0 | CDK5 = 0 | CDK6 = 0

CO/N=C1/C(c2c(O)[nH]c3cc(Cl)c(Cl)cc23)=Nc2ccccc21 (10 µM)
inactive: ABL1 = 0 | AKT1 = 0 | ALK 0 | ARAF 0 | AURKA 0 | AURKB 0 | AURKC 0 | BLK 0 | BMX 0 | BRAF 0 | BRAF_V600E 0 | BTK 0 | CAMK2A 0 | CAMK2G 0 | CDK10 = 0 | CDK2 = 0 | CDK3 = 0 | CDK4 = 0 | CDK5 = 0 | CDK6 = 0

Cc1cnc(Cl)nc1-c1ccc(N(Cc2ccc(CNC(=O)C(F)F)cc2)C(=O)c2ccc(O)cc2O)cc1 (10 µM)
inactive: ABL1 = 0 | AKT1 = 0 | ALK 0 | ARAF 0 | AURKA 0 | AURKB 0 | AURKC 0 | BLK 0 | BMX 0 | BRAF 0 | BRAF_V600E 0 | BTK 0 | CAMK2A 0 | CAMK2G 0 | CDK10 = 0 | CDK2 = 0 | CDK3 = 0 | CDK4 = 0 | CDK5 = 0 | CDK6 = 0

Looked up by compound from the entries so far (2):
CCOC(=O)c1c(C)[nH]c(C=C2C(=O)Nc3ccccc32)c1C (10 µM)
inactive: ABL1 = 0 | AKT1 = 0 | ALK 0 | ARAF 0 | AURKA 0 | AURKB 0 | AURKC 0 | BLK 0 | BMX 0 | BRAF 0 | BRAF_V600E 0 | BTK 0 | CAMK2A 0 | CAMK2G 0 | CDK10 = 0 | CDK2 = 0 | CDK3 = 0 | CDK4 = 0 | CDK5 = 0 | CDK6 = 0

COc1cc2c(cc1OC)[C@@H]1C(=O)c3ccc4c(c3O[C@@H]1CO2)C=CC(C)(C)O4 [Deguelin] (10 µM)
inactive: ABL1 = 0 | AKT1 = 0 | ALK 0 | ARAF 0 | AURKA 0 | AURKB 0 | AURKC 0 | BLK 0 | BMX 0 | BRAF 0 | BRAF_V600E 0 | BTK 0 | CAMK2A 0 | CAMK2G 0 | CDK10 = 0 | CDK2 = 0 | CDK3 = 0 | CDK4 = 0 | CDK5 = 0 | CDK6 = 0

Additional records follow:

CC1(C)CN(C(=O)c2ccc(-c3cccc4nc(NC(=O)C5CC5)nn34)cc2)C1 [Solcitinib] (10 µM)
inactive: ABL1 = 0 | AKT1 = 0 | ALK 0 | ARAF 0 | AURKA 0 | AURKB 0 | AURKC 0 | BLK 0 | BMX 0 | BRAF 0 | BRAF_V600E 0 | BTK 0 | CAMK2A 0 | CAMK2G 0 | CDK10 = 0 | CDK2 = 0 | CDK3 = 0 | CDK4 = 0 | CDK5 = 0 | CDK6 = 0

O=C(O)c1c[nH]c2cc(Cl)c(-c3ccc(C4(O)CCC4)cc3)cc12 (10 µM)
inactive: ABL1 = 0 | AKT1 = 0 | ALK 0 | ARAF 0 | AURKA 0 | AURKB 0 | AURKC 0 | BLK 0 | BMX 0 | BRAF 0 | BRAF_V600E 0 | BTK 0 | CAMK2A 0 | CAMK2G 0 | CDK10 = 0 | CDK2 = 0 | CDK3 = 0 | CDK4 = 0 | CDK5 = 0 | CDK6 = 0

Cc1nc2c(NCc3cccc(S(C)(=O)=O)c3)nccn2c1-c1ccc(O)c(F)c1 (10 µM)
inactive: ABL1 = 0 | AKT1 = 0 | ALK 0 | ARAF 0 | AURKA 0 | AURKB 0 | AURKC 0 | BLK 0 | BMX 0 | BRAF 0 | BRAF_V600E 0 | BTK 0 | CAMK2A 0 | CAMK2G 0 | CDK10 = 0 | CDK2 = 0 | CDK3 = 0 | CDK4 = 0 | CDK5 = 0 | CDK6 = 0

Cc1nn(CC(F)(F)F)cc1Nc1ncc(Br)c(NCc2ccc(S(N)(=O)=O)cc2)n1 (10 µM)
inactive: ABL1 = 0 | AKT1 = 0 | ALK 0 | ARAF 0 | AURKA 0 | AURKB 0 | AURKC 0 | BLK 0 | BMX 0 | BRAF 0 | BRAF_V600E 0 | BTK 0 | CAMK2A 0 | CAMK2G 0 | CDK10 = 0 | CDK2 = 0 | CDK3 = 0 | CDK4 = 0 | CDK5 = 0 | CDK6 = 0

CO[C@]1(C(=O)N[C@@H](C)c2ccc(-n3cc(F)cn3)nc2)CC[C@H](c2nc(C)cc(Nc3cc(C)[nH]n3)n2)CC1 [Pralsetinib] (10 µM)
inactive: ABL1 = 0 | AKT1 = 0 | ALK 0 | ARAF 0 | AURKA 0 | AURKB 0 | AURKC 0 | BLK 0 | BMX 0 | BRAF 0 | BRAF_V600E 0 | BTK 0 | CAMK2A 0 | CAMK2G 0 | CDK10 = 0 | CDK2 = 0 | CDK3 = 0 | CDK4 = 0 | CDK5 = 0 | CDK6 = 0

O=C(Nc1ccnc(NC(=O)C2CC2)c1)c1c(Cl)cccc1Cl (10 µM)
inactive: ABL1 = 0 | AKT1 = 0 | ALK 0 | ARAF 0 | AURKA 0 | AURKB 0 | AURKC 0 | BLK 0 | BMX 0 | BRAF 0 | BRAF_V600E 0 | BTK 0 | CAMK2A 0 | CAMK2G 0 | CDK10 = 0 | CDK2 = 0 | CDK3 = 0 | CDK4 = 0 | CDK5 = 0 | CDK6 = 0
